According to the supplement of paper PMC8728848:
Some of the results follow.

Columns and labels:
Assay in all cases: glycan array binding signal (z-score within array); higher = stronger binding
Details in all cases: glycan notation: IUPAC condensed, linker removed
[1] = target: Fuc(a1-2)Gal(b1-4)GlcNAc(b1-3)Gal(b1-4)GlcNAc(b1-2)Man(a1-3)[Fuc(a1-2)Gal(b1-4)GlcNAc(b1-3)Gal(b1-4)GlcNAc(b1-2)Man(a1-6)]Man(b1-4)GlcNAc(b1-4)GlcNAc
In short: (§1)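 Negative Z-scores can be read as non-binding. The Z-score is calculated within each array and then averaged across arrays of one protein sequence at different concentrations or buffers and across linkers. Arrays, 3228 in all, were curated from the Consortium for Functional Glycomics database and kept only where the protein sequence was available.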

[2] = target: Fuc(a1-2)Gal(b1-4)GlcNAc(b1-3)Gal(b1-4)GlcNAc(b1-3)Gal(b1-4)GlcNAc
In short: as §1

[3] = target: Fuc(a1-2)Gal(b1-4)GlcNAc(b1-3)GalNAc
In short: as §1

[4] = target: Fuc(a1-2)Gal(b1-4)GlcNAc(b1-3)[Fuc(a1-2)Gal(b1-4)GlcNAc(b1-6)]GalNAc
In short: as §1

[5] = target: Fuc(a1-2)Gal(b1-4)GlcNAc(b1-3)[Fuc(a1-3)[Gal(b1-4)]GlcNAc(b1-6)]Gal(b1-4)Glc
In short: as §1

[6] = target: Fuc(a1-2)Gal(b1-4)GlcNAc(b1-6)GalNAc
In short: as §1

[7] = target: Fuc(a1-2)Gal(b1-4)GlcNAc6S
In short: as §1

[8] = target: Fuc(a1-2)Gal(b1-4)[Fuc(a1-3)]GlcNAc
In short: as §1

[9] = target: Fuc(a1-2)Gal(b1-4)[Fuc(a1-3)]GlcNAc(b1-2)Man(a1-3)[Fuc(a1-2)Gal(b1-4)[Fuc(a1-3)]GlcNAc(b1-2)Man(a1-6)]Man(b1-4)GlcNAc(b1-4)[Fuc(a1-6)]GlcNAc
In short: as §1

[10] = target: Fuc(a1-2)Gal(b1-4)[Fuc(a1-3)]GlcNAc(b1-2)[Fuc(a1-2)Gal(b1-4)[Fuc(a1-3)]GlcNAc(b1-4)]Man(a1-3)[Fuc(a1-2)Gal(b1-4)[Fuc(a1-3)]GlcNAc(b1-2)Man(a1-6)]Man(b1-4)GlcNAc(b1-4)GlcNAc
In short: as §1

[11] = target: Fuc(a1-2)Gal(b1-4)[Fuc(a1-3)]GlcNAc(b1-3)Gal(b1-4)[Fuc(a1-3)]GlcNAc
In short: as §1

[12] = target: Fuc(a1-2)Gal(b1-4)[Fuc(a1-3)]GlcNAc(b1-3)Gal(b1-4)[Fuc(a1-3)]GlcNAc(b1-3)Gal(b1-4)[Fuc(a1-3)]GlcNAc
In short: as §1

[13] = target: Fuc(a1-2)Gal(b1-4)[Fuc(a1-3)]GlcNAc(b1-3)GalNAc
In short: as §1

[14] = target: Fuc(a1-2)Gal(b1-4)[Fuc(a1-3)]GlcNAc(b1-3)[Neu5Ac(a2-6)Gal(b1-4)GlcNAc(b1-6)]Gal(b1-4)Glc
In short: as §1

[15] = target: Fuc(a1-2)Gal3S(b1-4)GlcNAc
In short: as §1

[16] = target: Fuc(a1-2)Gal6S(b1-3)GlcNAc
In short: as §1

[17] = target: Fuc(a1-2)Gal6S(b1-3)GlcNAc6S
In short: as §1

Fuc(a1-2)Gal6S(b1-4)Glc = target: Fuc(a1-2)Gal6S(b1-4)Glc
In short: as §1

[18] = target: Fuc(a1-2)Gal6S(b1-4)Glc6S
In short: as §1

Fuc(a1-2)[Gal(a1-3)]Gal = target: Fuc(a1-2)[Gal(a1-3)]Gal
In short: as §1

[19] = target: Fuc(a1-2)[Gal(a1-3)]Gal(b1-3)GalNAc
In short: as §1

[20] = target: Fuc(a1-2)[Gal(a1-3)]Gal(b1-3)GalNAc(b1-3)Gal(a1-4)Gal(b1-4)Glc
In short: as §1

[21] = target: Fuc(a1-2)[Gal(a1-3)]Gal(b1-3)GlcNAc
In short: as §1

[22] = target: Fuc(a1-2)[Gal(a1-3)]Gal(b1-3)GlcNAc(b1-2)Man(a1-3)[Fuc(a1-2)[Gal(a1-3)]Gal(b1-3)GlcNAc(b1-2)Man(a1-6)]Man(b1-4)GlcNAc(b1-4)GlcNAc
In short: as §1

[23] = target: Fuc(a1-2)[Gal(a1-3)]Gal(b1-3)GlcNAc(b1-2)Man(a1-3)[Fuc(a1-2)[Gal(a1-3)]Gal(b1-3)GlcNAc(b1-2)Man(a1-6)]Man(b1-4)GlcNAc(b1-4)[Fuc(a1-6)]GlcNAc
In short: as §1

[24] = target: Fuc(a1-2)[Gal(a1-3)]Gal(b1-3)GlcNAc(b1-3)GalNAc
In short: as §1

[25] = target: Fuc(a1-2)[Gal(a1-3)]Gal(b1-3)GlcNAc(b1-6)GalNAc
In short: as §1

[26] = target: Fuc(a1-2)[Gal(a1-3)]Gal(b1-4)Glc
In short: as §1

[27] = target: Fuc(a1-2)[Gal(a1-3)]Gal(b1-4)GlcNAc
In short: as §1

[28] = target: Fuc(a1-2)[Gal(a1-3)]Gal(b1-4)GlcNAc(b1-2)Man
In short: as §1

B1: CD34 (Homo sapiens), P28906 (protein)
chain: MGSSHHHHHHSSGLVPRGSHMSTSLATSPTKPYTSSSPILSDIKAEIKCSGIREVKLTQGICLEQNKTSSCAEFKKDRGEGLARVLCGEEQADADAGAQVCSLLLAQSEVRPQCLLLVLANRTEISSKLQLMKKHQSDLKKLGILDFTEQDVASHQSYSQKT
glycan array binding signal (z-score) [1]: 1.17 | glycan array binding signal (z-score) [2]: 0.507 | glycan array binding signal (z-score) [3]: 0.116 | glycan array binding signal (z-score) [4]: 0.019 | glycan array binding signal (z-score) [5]: 0.14 | glycan array binding signal (z-score) [6]: 0.194 | glycan array binding signal (z-score) [7]: 0.24 | glycan array binding signal (z-score) [8]: 0.256 | glycan array binding signal (z-score) [9]: 0.227 | glycan array binding signal (z-score) [10]: 1.72 | glycan array binding signal (z-score) [11]: 0.113 | glycan array binding signal (z-score) [12]: -0.143 | glycan array binding signal (z-score) [13]: 0.392 | glycan array binding signal (z-score) [14]: -0.134 | glycan array binding signal (z-score) [15]: -0.824 | glycan array binding signal (z-score) [16]: 0.1 | glycan array binding signal (z-score) [17]: 0.106 | glycan array binding signal (z-score) (Fuc(a1-2)Gal6S(b1-4)Glc): 0.088 | glycan array binding signal (z-score) [18]: -0.503 | glycan array binding signal (z-score) (Fuc(a1-2)[Gal(a1-3)]Gal): -0.195 | glycan array binding signal (z-score) [19]: 0.032 | glycan array binding signal (z-score) [20]: -0.319 | glycan array binding signal (z-score) [21]: -0.767 | glycan array binding signal (z-score) [22]: -0.09 | glycan array binding signal (z-score) [23]: 0.12 | glycan array binding signal (z-score) [24]: -0.601 | glycan array binding signal (z-score) [25]: -0.219 | glycan array binding signal (z-score) [26]: 0.606 | glycan array binding signal (z-score) [27]: -0.817 | glycan array binding signal (z-score) [28]: 0.821
